Experimental data as given in the supplement of paper PMC11006884.
Most of the targets with a hit are listed elsewhere, so they are rarer here than in the full data. This is a noisy data set. Only a part is listed here, and it is no random draw.

Amino acid sequences for entries named in this document (tags omitted). A change or cut given only in a name is not applied to a line headed by its entry.
UniProt P49327, whole entry, looked up: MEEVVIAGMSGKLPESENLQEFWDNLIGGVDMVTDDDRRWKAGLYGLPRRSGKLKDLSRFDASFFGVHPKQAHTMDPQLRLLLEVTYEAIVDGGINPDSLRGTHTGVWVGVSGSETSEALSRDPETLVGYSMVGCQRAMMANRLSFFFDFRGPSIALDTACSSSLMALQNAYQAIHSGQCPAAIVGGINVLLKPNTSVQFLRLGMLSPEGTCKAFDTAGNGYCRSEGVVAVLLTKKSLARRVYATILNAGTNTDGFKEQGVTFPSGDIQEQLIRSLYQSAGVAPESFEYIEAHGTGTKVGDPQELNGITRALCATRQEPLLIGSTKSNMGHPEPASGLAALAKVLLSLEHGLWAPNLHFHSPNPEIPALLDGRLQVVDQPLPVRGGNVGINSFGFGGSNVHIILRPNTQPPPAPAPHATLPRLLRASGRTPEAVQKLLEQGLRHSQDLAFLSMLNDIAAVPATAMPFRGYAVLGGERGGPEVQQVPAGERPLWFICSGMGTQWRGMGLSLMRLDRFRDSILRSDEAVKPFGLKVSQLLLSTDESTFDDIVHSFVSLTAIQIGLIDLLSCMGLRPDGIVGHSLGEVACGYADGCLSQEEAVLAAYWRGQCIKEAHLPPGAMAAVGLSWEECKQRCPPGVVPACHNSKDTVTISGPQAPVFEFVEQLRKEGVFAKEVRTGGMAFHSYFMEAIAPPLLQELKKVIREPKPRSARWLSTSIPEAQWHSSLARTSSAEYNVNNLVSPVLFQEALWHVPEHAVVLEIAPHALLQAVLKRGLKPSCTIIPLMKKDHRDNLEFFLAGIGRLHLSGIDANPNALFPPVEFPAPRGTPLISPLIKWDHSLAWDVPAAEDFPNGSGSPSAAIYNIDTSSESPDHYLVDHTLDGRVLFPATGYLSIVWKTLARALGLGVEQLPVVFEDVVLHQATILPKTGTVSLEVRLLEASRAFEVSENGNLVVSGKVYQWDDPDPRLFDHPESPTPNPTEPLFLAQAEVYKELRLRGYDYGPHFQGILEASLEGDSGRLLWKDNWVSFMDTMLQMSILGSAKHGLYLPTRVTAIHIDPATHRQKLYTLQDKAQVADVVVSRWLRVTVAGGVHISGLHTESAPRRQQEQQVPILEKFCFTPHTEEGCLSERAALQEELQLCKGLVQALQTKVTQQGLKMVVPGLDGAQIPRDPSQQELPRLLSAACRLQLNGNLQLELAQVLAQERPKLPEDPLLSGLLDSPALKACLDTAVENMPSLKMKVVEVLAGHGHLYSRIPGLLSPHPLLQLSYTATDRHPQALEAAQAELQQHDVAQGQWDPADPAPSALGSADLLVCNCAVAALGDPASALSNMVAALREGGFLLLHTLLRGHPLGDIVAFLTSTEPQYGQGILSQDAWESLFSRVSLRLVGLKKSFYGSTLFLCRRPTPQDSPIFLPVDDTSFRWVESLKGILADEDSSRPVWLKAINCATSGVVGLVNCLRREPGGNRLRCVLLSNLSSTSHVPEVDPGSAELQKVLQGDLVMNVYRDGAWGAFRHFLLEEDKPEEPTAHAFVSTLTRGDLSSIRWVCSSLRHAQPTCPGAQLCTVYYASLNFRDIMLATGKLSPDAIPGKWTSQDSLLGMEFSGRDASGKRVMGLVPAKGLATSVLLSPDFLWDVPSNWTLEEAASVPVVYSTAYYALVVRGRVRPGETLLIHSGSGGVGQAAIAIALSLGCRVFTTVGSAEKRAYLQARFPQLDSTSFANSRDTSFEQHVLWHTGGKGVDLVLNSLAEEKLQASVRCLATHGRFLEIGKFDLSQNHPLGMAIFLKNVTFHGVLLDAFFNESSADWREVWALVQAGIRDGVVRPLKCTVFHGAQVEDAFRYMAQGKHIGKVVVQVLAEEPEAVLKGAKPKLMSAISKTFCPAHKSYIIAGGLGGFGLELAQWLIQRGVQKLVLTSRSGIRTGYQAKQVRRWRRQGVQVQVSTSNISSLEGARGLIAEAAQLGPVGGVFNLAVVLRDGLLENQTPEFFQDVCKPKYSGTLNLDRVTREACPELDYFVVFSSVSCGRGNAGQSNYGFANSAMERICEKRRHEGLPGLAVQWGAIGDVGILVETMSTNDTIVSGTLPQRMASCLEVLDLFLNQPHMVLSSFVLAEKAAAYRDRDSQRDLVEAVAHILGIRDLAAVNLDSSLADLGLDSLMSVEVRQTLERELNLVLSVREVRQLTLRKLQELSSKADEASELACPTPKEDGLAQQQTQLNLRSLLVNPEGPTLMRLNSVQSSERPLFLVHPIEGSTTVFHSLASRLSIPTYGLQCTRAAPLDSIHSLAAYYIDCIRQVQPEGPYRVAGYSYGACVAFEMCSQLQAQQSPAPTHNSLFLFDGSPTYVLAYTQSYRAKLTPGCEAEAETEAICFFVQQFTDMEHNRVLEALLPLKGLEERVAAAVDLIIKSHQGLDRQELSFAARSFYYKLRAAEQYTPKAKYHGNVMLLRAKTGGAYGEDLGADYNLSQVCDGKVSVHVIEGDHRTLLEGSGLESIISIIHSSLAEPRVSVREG
UniProt P46013: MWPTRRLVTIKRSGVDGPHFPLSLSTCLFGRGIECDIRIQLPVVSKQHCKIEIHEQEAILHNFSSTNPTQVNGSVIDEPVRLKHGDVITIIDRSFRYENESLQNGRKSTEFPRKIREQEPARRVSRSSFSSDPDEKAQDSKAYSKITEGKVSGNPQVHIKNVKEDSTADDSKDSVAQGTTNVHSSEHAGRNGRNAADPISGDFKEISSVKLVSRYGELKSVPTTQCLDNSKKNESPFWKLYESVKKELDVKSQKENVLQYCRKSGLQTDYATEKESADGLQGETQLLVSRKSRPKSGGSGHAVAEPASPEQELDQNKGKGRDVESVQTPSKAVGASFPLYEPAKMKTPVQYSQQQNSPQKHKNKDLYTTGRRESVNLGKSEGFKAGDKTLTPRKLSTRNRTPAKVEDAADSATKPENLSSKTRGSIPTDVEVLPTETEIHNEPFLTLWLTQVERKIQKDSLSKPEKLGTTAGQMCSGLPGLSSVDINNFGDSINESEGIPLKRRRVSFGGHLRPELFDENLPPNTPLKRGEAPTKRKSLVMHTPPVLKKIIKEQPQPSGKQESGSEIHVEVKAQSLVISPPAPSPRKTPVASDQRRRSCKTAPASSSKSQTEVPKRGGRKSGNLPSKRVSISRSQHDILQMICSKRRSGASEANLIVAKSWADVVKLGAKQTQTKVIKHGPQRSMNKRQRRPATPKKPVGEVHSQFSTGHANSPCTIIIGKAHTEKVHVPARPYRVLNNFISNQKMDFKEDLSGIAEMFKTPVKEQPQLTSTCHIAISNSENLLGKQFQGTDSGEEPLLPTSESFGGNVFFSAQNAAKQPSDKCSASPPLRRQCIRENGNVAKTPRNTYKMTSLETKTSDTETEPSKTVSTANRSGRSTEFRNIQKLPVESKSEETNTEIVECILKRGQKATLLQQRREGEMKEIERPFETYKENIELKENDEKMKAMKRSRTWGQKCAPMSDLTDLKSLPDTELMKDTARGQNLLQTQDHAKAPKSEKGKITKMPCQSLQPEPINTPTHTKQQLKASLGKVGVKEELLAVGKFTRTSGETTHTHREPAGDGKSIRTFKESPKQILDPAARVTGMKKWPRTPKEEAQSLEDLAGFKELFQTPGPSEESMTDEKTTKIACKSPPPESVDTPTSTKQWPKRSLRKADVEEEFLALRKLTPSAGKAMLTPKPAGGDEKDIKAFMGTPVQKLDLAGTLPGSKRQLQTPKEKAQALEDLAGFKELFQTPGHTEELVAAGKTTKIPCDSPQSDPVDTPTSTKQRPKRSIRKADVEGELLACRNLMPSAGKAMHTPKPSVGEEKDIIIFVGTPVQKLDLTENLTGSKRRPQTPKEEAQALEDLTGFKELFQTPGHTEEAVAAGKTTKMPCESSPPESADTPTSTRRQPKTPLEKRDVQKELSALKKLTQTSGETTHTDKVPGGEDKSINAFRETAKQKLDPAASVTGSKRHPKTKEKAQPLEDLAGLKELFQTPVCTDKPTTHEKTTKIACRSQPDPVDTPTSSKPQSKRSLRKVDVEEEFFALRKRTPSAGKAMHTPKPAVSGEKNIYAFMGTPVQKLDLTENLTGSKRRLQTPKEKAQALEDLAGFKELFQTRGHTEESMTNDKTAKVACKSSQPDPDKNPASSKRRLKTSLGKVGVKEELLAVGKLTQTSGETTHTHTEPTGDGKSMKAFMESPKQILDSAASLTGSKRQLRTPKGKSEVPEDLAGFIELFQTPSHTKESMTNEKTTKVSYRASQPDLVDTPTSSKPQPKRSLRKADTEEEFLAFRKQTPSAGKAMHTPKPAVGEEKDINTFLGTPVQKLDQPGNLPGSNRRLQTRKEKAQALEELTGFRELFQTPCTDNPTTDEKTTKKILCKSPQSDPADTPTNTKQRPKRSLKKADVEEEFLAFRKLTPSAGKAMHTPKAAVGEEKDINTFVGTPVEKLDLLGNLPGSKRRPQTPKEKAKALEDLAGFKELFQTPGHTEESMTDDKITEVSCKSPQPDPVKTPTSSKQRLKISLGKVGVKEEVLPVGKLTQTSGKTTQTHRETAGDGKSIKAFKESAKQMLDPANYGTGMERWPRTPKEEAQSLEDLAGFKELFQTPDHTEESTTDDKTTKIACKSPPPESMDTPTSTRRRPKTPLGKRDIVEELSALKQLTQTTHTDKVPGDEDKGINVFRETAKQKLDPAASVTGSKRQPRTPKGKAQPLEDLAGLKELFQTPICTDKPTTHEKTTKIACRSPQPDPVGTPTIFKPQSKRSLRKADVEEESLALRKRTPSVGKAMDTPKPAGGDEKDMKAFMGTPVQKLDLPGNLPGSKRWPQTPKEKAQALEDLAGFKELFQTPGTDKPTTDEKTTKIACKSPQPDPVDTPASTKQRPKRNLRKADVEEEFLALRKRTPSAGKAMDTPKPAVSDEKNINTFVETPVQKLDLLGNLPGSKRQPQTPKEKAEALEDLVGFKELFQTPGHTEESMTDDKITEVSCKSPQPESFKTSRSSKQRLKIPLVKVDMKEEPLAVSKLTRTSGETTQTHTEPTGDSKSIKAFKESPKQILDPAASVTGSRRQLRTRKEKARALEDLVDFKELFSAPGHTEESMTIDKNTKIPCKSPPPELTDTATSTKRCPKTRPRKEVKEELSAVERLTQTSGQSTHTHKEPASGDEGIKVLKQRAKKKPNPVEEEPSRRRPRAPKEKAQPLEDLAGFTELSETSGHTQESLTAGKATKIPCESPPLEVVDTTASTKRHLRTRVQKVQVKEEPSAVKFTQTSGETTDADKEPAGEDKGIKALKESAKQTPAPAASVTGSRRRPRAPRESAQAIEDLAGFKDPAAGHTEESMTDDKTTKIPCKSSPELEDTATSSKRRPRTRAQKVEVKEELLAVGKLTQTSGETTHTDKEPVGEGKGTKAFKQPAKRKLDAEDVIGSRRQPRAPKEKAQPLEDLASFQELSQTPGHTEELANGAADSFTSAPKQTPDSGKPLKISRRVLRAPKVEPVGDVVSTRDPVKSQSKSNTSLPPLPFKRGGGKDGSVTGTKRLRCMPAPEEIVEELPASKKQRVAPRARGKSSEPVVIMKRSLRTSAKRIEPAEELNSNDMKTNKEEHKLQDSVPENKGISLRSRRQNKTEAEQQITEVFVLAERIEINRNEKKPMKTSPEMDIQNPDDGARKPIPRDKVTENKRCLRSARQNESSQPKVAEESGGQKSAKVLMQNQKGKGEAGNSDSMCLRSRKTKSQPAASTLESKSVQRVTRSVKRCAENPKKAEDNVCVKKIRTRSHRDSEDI
UniProt P51114, whole entry, looked up: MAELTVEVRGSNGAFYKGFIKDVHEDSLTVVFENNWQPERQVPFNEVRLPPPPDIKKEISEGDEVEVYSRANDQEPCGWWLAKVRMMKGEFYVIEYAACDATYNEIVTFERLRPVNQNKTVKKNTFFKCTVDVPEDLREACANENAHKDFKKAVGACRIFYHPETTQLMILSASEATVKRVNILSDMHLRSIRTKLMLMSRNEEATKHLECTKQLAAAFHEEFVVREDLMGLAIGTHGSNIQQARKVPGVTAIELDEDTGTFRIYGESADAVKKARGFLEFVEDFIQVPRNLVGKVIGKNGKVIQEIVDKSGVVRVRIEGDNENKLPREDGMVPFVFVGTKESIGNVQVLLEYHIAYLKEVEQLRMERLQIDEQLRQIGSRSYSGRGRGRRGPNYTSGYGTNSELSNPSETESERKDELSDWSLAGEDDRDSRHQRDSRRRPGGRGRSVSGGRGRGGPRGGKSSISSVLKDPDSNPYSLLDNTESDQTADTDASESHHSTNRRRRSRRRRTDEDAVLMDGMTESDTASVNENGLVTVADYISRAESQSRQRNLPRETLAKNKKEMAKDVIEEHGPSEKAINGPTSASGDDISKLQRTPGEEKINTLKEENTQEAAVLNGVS
UniProt P49459, whole entry, looked up: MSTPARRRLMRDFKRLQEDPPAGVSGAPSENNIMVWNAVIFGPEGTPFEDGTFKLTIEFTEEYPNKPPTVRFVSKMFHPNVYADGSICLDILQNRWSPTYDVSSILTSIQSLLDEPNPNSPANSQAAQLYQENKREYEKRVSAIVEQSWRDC

compound: COC(=O)/C=C/c1ccccc1 [methyl cinnamate]; assay: log2 ratio of iodoacetamide-alkyne labeling of the cysteine site, DMSO over compound (competition); higher = stronger covalent engagement of the cysteine by the compound, active = 1 or more; settings: 500 µM; treatment time 1 h; system: HEK293T cell lysate
Procedure, shortened: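 HEK293T lysate (2 mg/mL) was treated with DMSO or electrophile (500 µM, 1 h, ambient temperature), then iodoacetamide alkyne (1 h), clicked to sCIP-TMT reagents, pooled, trypsin-digested overnight at 37 °C, streptavidin-enriched and acid-eluted. Peptides were run on Orbitrap Eclipse LC-MS/MS with FAIMS and quantified in FragPipe. The log2 competition ratio per cysteine is mean control-channel over mean compound-channel reporter intensity. Duplicate channels and three replicates were used, and cysteines quantified in only one replicate were excluded.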

log2 ratio of iodoacetamide-alkyne labeling, inactive:
RANBP2 C1296 (UniProt P49792) 0.0596
HCFC1 C1886 (UniProt P51610) 0.0527
FASN C1448 (UniProt P49327) 0.102
RANBP2 C2791 (UniProt P49792) 0.221
RPL28 C13 (UniProt P46779) 0.029
MKI67 C1479 (UniProt P46013) 0.282
MKI67 C226 (UniProt P46013) 0.216
ST13 C16 (UniProt P50502) 0.314
NDUFV1 C125 (UniProt P49821) 0.00583
LRBA C1704 (UniProt P50851) 0.0274
NASP C708 (UniProt P49321) 0.358
RBM25 C83 (UniProt P49756) 0.302
MKI67 C643 (UniProt P46013) -0.066
MKI67 C2206 (UniProt P46013) 0.27
FASN C779 (UniProt P49327) 0.0523
UniProt P49591_C398 -0.0649
HCFC1 C1872 (UniProt P51610) 0.257
CAMLG C123 (UniProt P49069) 0.239
MAP1B C2065 (UniProt P46821) 0.35
IDH2 C154 (UniProt P48735) 0.153
FASN C2273 (UniProt P49327) 0.0474
CCT8 C347 (UniProt P50990) -0.461
CCT8 C149 (UniProt P50990) 0.0942
FASN C2359 (UniProt P49327) -0.123
GPD2 C285 (UniProt P43304) 0.422
FXR1 C157 (UniProt P51114) 0.284
IREB2 C137 (UniProt P48200) 0.432
GRK6 C474 (UniProt P43250) -0.066
SRP9 C39 (UniProt P49458) 0.225
METAP2 C298 (UniProt P50579) -0.277
GMPS C631 (UniProt P49915) 0.221
PCYT1A C37 (UniProt P49585) 0.122
UniProt P49459_C88 -0.163
RPL34 C83 (UniProt P49207) 0.0307
IQGAP1 C660 (UniProt P46940) 0.0761
UniProt P46379_C856 0.00951
FXR1 C77 (UniProt P51114) 0.00294

2 successive records already listed, for reference:
log2 ratio of iodoacetamide-alkyne labeling, inactive:
MKI67 C226 (UniProt P46013) 0.216
ST13 C16 (UniProt P50502) 0.314
